# Tested on: PASMCs
# Test: Hypoxia-induced increase in [Ca2+]i in PASMCs (4% O2)
# Format: cell-based
# Conditions: Rattus norvegicus, PASMC, from concentration-inhibition plot, read-out: IC50 for hypoxia-induced rise in [Ca^2+]i
# Description: Intrapulmonary arteries (200-600 μm o.d.) were isolated from male Wistar rats (250-350 g) and cleaned of connective tissue. After the lumen was gently rubbed with a cotton swab to remove the endothelial cells, the arteries were allowed to recover for 30 minutes in cold (4° C.) HBSS containing (in mM): 130 NaCl, 5 KCl, 1.2 MgCl2, 1.5 CaCl2, 10 N-[2-hydroxyethyl]piperazine-N′-[2-ethanesulfonic acid] (HEPES) and 10 glucose, with pH adjusted to 7.2 with 5 M NaOH, followed by 20 minutes in reduced-Ca^2+ (20 μM CaCl2) HBSS at room temperature. […] Following digestion, single smooth muscle cells were dispersed by gentle trituration with a wide-bore transfer pipette in Ca^2+-free HBSS and the cell suspension was placed on 25 mm glass cover slips. […]
# Acute hypoxia increases intracellular [Ca^2+] in pulmonary arterial smooth muscle by enhancing capacitative Ca^2+ entry. […] Ratiometric measurement of fluorescence from the dye was performed on a workstation (Intracellular Imaging Inc, Cincinnati, Ohio) consisting of a Nikon TSE 100 Ellipse inverted microscope with epi-fluorescence attachments. The light beam from a xenon arc lamp was filtered at 340 and 380 nm, and focused onto the PASMCS under examination via a 20× fluorescence objective (Super Fluor 20, Nikon). Light emitted from the cell at 510 nm was returned through the objective and detected by a cooled CCD imaging camera. […]
structure (smiles),measurement,value
"CC(=O)Nc1nnc(S(N)(=O)=O)s1 [AZ, acetazolamide]",IC50,50 µM

# From patent US8614236B2 (University of Washington, priority 2006, dated 2013)
